Library compounds against nucleic acid targets

Source: the ROBIN nucleic acid binder screens (doi:10.1002/anie.202211358).

Oligonucleotides screened, 5′ to 3′:
TPP: TPP riboswitch RNA three-way junction, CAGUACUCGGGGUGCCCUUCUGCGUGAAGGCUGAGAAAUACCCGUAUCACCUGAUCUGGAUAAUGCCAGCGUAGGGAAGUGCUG. Hit rate about 0.7% of about 24,000 compounds.
PreQ1: PreQ1 riboswitch RNA pseudoknot, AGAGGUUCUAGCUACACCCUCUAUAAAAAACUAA. From B. subtilis. Hit rate about 0.7% of about 24,000 compounds.
SAM-II: SAM-II riboswitch RNA pseudoknot, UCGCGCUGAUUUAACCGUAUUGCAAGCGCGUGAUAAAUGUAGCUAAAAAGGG. Hit rate about 1% of about 21,000 compounds.

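The test is a small-molecule microarray: each compound is printed twice on a reactive slide, and binding shows as fluorescence of the labelled oligonucleotide after washing. The data file lists only calls. An earlier report of the laboratory on the PreQ1, TPP and SAM-II riboswitches (doi:10.1038/s41467-019-09493-3) used 1 µM RNA for 2 h and required a mean Z-score above 3 (spot signal-to-noise against the whole library), a score well above that on a control array, and duplicate spots agreeing (coefficient of variation under 100); it then also set aside compounds that hit other targets, which this list keeps. The cut-offs behind this list may differ. The calls come from the array alone, and fixing a compound to the slide can hide its binding.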 “active” means called a hit, “inactive” means screened and not called a hit. This is an unselected part of the compounds tested. A target missing from an entry has no call listed here.

Calls for CCOC(=O)c1c(C)n(CC(O)CNC(C)C)c2cc(Br)c(OC)cc12.Cl (configuration not stated) are TPP: inactive; PreQ1: inactive; SAM-II: inactive. For Cc1nc2cc(C(=O)O)ccc2n1CCO the calls were TPP: inactive; PreQ1: inactive; SAM-II: inactive. Cc1ccc2nc(-c3ccsc3)c(NC3CCCC3)n2c1 was scored TPP: inactive; PreQ1: inactive; SAM-II: inactive. CNc1ccccc1C(=O)N(C)C(C)c1ccc(OC)cc1 (configuration not stated) was scored TPP: inactive; PreQ1: inactive; SAM-II: inactive. With Cc1nc2cc(-c3nc(CC4CCN(C)CC4)nn3CCO)ccc2s1 the screen gave TPP: inactive; PreQ1: inactive; SAM-II: inactive. Calls for Cc1c(Br)cc(Br)c(N)c1Br are TPP: inactive; PreQ1: inactive; SAM-II: inactive.

Calls for Cc1cc(C)n(CCCC(=O)N2C[C@H](O)[C@@H](N3CCNC(=O)CC3)C2)n1 are TPP: inactive; PreQ1: inactive; SAM-II: inactive. For O=c1c2ccccc2nc(C=Cc2ccc(Br)cc2)n1CCCO the calls were TPP: inactive; PreQ1: inactive; SAM-II: inactive. Calls for COc1cc(OC)cc(N2C(=O)CC(N3CCC(Nc4ccc5c(c4)OCO5)CC3)C2=O)c1 (configuration not stated) are TPP: inactive; PreQ1: inactive; SAM-II: inactive. Calls for OCCn1ncnc1-c1cc(-c2ccccn2)n[nH]1 are TPP: inactive; PreQ1: inactive; SAM-II: inactive. For OCCNc1ncnc2c1oc1ccccc12 the calls were TPP: inactive; PreQ1: inactive; SAM-II: inactive. With Cc1ccc([N+]2=C(N)c3ccccc3C2)cc1.[Cl-] the screen gave TPP: inactive; PreQ1: inactive; SAM-II: inactive.

Calls for CCOc1ccc(/C=C2\NC(=S)NC2=O)cc1 are TPP: inactive; PreQ1: inactive; SAM-II: inactive. For CC(=O)c1[nH]c(C)c(C(=O)N2CC[C@@H](c3sccc3C)[C@H](O)C2)c1C the calls were TPP: inactive; PreQ1: inactive; SAM-II: inactive. O=C(O)C=Cc1ccc(S(=O)(=O)N(CCO)CCO)cc1 was scored TPP: inactive; PreQ1: inactive; SAM-II: inactive. For CCN(C)C(=O)c1ccc(-c2cc(N)nc3[nH]ccc23)nc1 the calls were TPP: inactive; PreQ1: inactive; SAM-II: inactive. Calls for CCO[C@H]1CN(C)C[C@@H]1NC1CCN(c2nc(C)nc3sccc23)CC1 are TPP: inactive; PreQ1: inactive; SAM-II: inactive. With Cc1ccc(Nc2c(-c3cccnc3)nc3ccc(Cl)cn23)cc1 the screen gave TPP: inactive; PreQ1: inactive; SAM-II: inactive.

With CCCNc1nc(-c2cccc(Cl)c2)cs1 the screen gave TPP: inactive; PreQ1: inactive; SAM-II: inactive. With CC(NCc1csc2ccc(Cl)cc12)C(=O)NC1CCCC1 (configuration not stated) the screen gave TPP: inactive; PreQ1: inactive; SAM-II: inactive. With O=C(N[C@@H]1CCN(Cc2coc(-c3ccccc3)n2)C[C@H]1O)c1cccnc1 the screen gave TPP: inactive; PreQ1: inactive; SAM-II: inactive. With Cc1nc([C@H]2CC[C@@H](N)C2)n(C2CCCCC2)n1 the screen gave TPP: inactive; PreQ1: inactive; SAM-II: inactive. With CC(C)C(NC(=O)C(=O)Nc1ccc(F)cc1)c1nnc2n1CCNCC2 (configuration not stated) the screen gave TPP: inactive; PreQ1: inactive; SAM-II: inactive. With C=CCNc1ccccc1C(=O)N(Cc1ccncc1)Cc1ccco1 the screen gave TPP: inactive; PreQ1: inactive; SAM-II: inactive.

Calls for CCCCN(C(=O)c1cc(N)ccn1)C1CCCCCC1 are TPP: inactive; PreQ1: inactive; SAM-II: inactive. With COC(C)(C)CCn1nc(Nc2c(C)cccc2C)c2cnc(Nc3ccc(OCCN4CCCC4)c(F)c3)nc21 the screen gave TPP: inactive; PreQ1: inactive; SAM-II: inactive. With CCCS(=O)(=O)Nc1ccc(F)c(C(=O)c2c[nH]c3ncc(Cl)cc23)c1F the screen gave TPP: inactive; PreQ1: inactive; SAM-II: inactive. With CC1(C)CC(NCc2ccccc2)CCO1 (configuration not stated) the screen gave TPP: inactive; PreQ1: inactive; SAM-II: inactive. With Cc1ccc2[nH]c(C)c(C(O)CN3CCN(c4ccccc4)CC3)c2c1 (configuration not stated) the screen gave TPP: inactive; PreQ1: inactive. With COc1cccc(CNCc2ccco2)c1OCc1ccc(F)cc1 the screen gave TPP: inactive; PreQ1: inactive; SAM-II: inactive.

Nc1c(C(=O)NCc2ccccc2)nnn1Cc1ccc(Br)cc1F was scored TPP: inactive; PreQ1: inactive; SAM-II: inactive.

4 of the entries, repeated:

{"smiles": "Cc1ccc2[nH]c(C)c(C(O)CN3CCN(c4ccccc4)CC3)c2c1", "stereo": "configuration not stated", "TPP": "inactive", "PreQ1": "inactive"}
{"smiles": "COC(C)(C)CCn1nc(Nc2c(C)cccc2C)c2cnc(Nc3ccc(OCCN4CCCC4)c(F)c3)nc21", "TPP": "inactive", "PreQ1": "inactive", "SAM-II": "inactive"}
{"smiles": "O=c1c2ccccc2nc(C=Cc2ccc(Br)cc2)n1CCCO", "TPP": "inactive", "PreQ1": "inactive", "SAM-II": "inactive"}
{"smiles": "Cc1nc([C@H]2CC[C@@H](N)C2)n(C2CCCCC2)n1", "TPP": "inactive", "PreQ1": "inactive", "SAM-II": "inactive"}